# Reference: PubChem BioAssay AID1347076 (National Center for Advancing Translational Sciences (NCATS), 2019)
# The whole screen tested about 400,000 compounds, of which about 13,000 (3.2%) were called active. Inconclusive results, whose numbers are uncertain, are shown with a selection of clear calls. Calls come from the whole dose curve; as a rule, active = well fitted cell-killing curve with a large enough effect; inconclusive = small, poorly fitted or top-dose-only effect, or effect the other way; inactive = flat fitted curve, though single readings scatter. Where the call is inconclusive, the potency comes from a doubtful curve fit.
# Experiment: qHTS assay for MDR1-selective chemotherapeutics: Primary screen using the drug-selected MDR subline cells KB-V1; note: nearly all actives have a fitted effect of over 60% in size
# Settings: KB-V1 MDR cells viability, CellTiter-Glo, 72 h; activity change, negative = cytotoxicity: at 46.1 µM (top of the series)
# How it was run: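 Compound-treated KB-V1 multidrug-resistant cells, 72 h, 37 degrees C; viability by CellTiter-Glo. Fitted qHTS curves give the values.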
# % is set by controls: 0 for no effect and ±100 for the full control effect; potency is the fitted concentration of half-maximal effect.
Structure (SMILES),Potency,"activity change, negative = cytotoxicity"
CCN(CC)c1ccc(NC(=O)CSc2nc(C)cc(=O)[nH]2)cc1,"inconclusive: 29.1 µM [rising, single point]",
CCOCCC(=O)Nc1ccc2c(c1)c(=O)n(C)n2-c1ccc2ccccc2c1,"inconclusive: 10.3 µM [cytotoxic, partial curve]",
Cc1ccc(S(=O)(=O)N2CCC(=O)N([C@H](COCc3cccc(Cl)c3)C(C)C)CC2)cc1,"inconclusive: 6.51 µM [cytotoxic, partial curve]",
CCN(CC)C(=O)CSc1nc2ccccc2c(=O)n1CCC(=O)N1CCN(c2ccccc2)CC1,"inconclusive: 1.3 µM [cytotoxic, full curve]",
COc1ccccc1NC(=O)CSc1nnc(-c2ccccn2)n1Cc1ccco1,"inconclusive: 18.4 µM [cytotoxic, partial curve, poor fit]",
COc1cc(Nc2ccccn2)cc(C(=O)Nc2cccc(C(F)(F)F)c2)c1,"inconclusive: 29.1 µM [cytotoxic, single point]",
Cc1cc(C)c(NC(=O)C2CC(=O)N(Cc3ccccc3)C2)c(C)c1 (stereo not drawn),,inactive: -12.9%
Cc1ccc(-c2csc(N/N=C/c3ccco3)n2)cc1,,inactive: -3.14%
COc1ccc(C)cc1-n1nnnc1SCc1csc(C)n1,,inactive: -4.77%
CC1CCCCN1S(=O)(=O)c1ccc2c(c1)oc(=O)n2CC(=O)Nc1ccc(Cl)cc1 (stereo not drawn),,inactive: -1.76%
O=C(NCCCc1ccccc1)c1ccc(CS(=O)Cc2ccc(Cl)cc2)o1 (stereo not drawn),,inactive: 12.2%
Cc1ccc(Cl)cc1NC(=O)C1C2CCC(O2)C1C(=O)O (stereo not drawn),"inconclusive: 23.1 µM [rising, single point]",
Cc1cc(NCCc2ccccc2F)n2ncnc2n1,"inconclusive: 29.1 µM [cytotoxic, single point]",
CCN(CC)c1ccc(C(=O)NC(=S)Nc2cc(S(=O)(=O)N3CCOCC3)ccc2-n2cncn2)cc1,,inconclusive: 37.2%
COc1ccc(Cc2nc3c4c(ncn3n2)Oc2ccc3ccccc3c2C4c2ccc(OC)c(OC)c2)cc1 (stereo not drawn),"inconclusive: 3.66 µM [cytotoxic, full curve]",
N#Cc1cccc(-n2c(-c3ccccc3)nnc2-c2ccccc2)c1C#N,"inconclusive: 25.9 µM [cytotoxic, partial curve, poor fit]",
CCOc1cc(CNCc2ccccc2)ccc1OCc1ccc(Cl)cc1,,inactive: 0%
Cn1c(=O)c2c(nc(CN3CCOCC3)n2CCCc2ccccc2)n(C)c1=O,,inactive: -21.5%
Cc1ccc(NC(=O)C(Cc2ccccc2)NS(=O)(=O)c2cccc3nsnc23)c(C)c1 (stereo not drawn),"inconclusive: 16.4 µM [cytotoxic, single point]",
Cc1ccc(C)c(C(=O)Nc2cc(C)nn2-c2nc(C)cc(C)n2)c1,"inconclusive: 32.6 µM [cytotoxic, single point]",
COc1ccc(CC(=O)Nc2sc3c(c2C(=O)Nc2c(C)cccc2C)CCCCC3)cc1,"inconclusive: 20.6 µM [cytotoxic, partial curve]",
CCCc1ccc(C(=O)N2CCN(c3ccccc3OCC)CC2)cc1,"inconclusive: 23.1 µM [cytotoxic, partial curve, poor fit]",

# Nothing new here: an excerpt of the list.
Structure (SMILES),Potency,"activity change, negative = cytotoxicity"
Cc1ccc(-c2csc(N/N=C/c3ccco3)n2)cc1,,inactive: -3.14%
COc1ccc(C)cc1-n1nnnc1SCc1csc(C)n1,,inactive: -4.77%
CC1CCCCN1S(=O)(=O)c1ccc2c(c1)oc(=O)n2CC(=O)Nc1ccc(Cl)cc1 (stereo not drawn),,inactive: -1.76%
O=C(NCCCc1ccccc1)c1ccc(CS(=O)Cc2ccc(Cl)cc2)o1 (stereo not drawn),,inactive: 12.2%
Cc1ccc(Cl)cc1NC(=O)C1C2CCC(O2)C1C(=O)O (stereo not drawn),"inconclusive: 23.1 µM [rising, single point]",
Cc1cc(NCCc2ccccc2F)n2ncnc2n1,"inconclusive: 29.1 µM [cytotoxic, single point]",
CCN(CC)c1ccc(C(=O)NC(=S)Nc2cc(S(=O)(=O)N3CCOCC3)ccc2-n2cncn2)cc1,,inconclusive: 37.2%
COc1ccc(Cc2nc3c4c(ncn3n2)Oc2ccc3ccccc3c2C4c2ccc(OC)c(OC)c2)cc1 (stereo not drawn),"inconclusive: 3.66 µM [cytotoxic, full curve]",
N#Cc1cccc(-n2c(-c3ccccc3)nnc2-c2ccccc2)c1C#N,"inconclusive: 25.9 µM [cytotoxic, partial curve, poor fit]",
CCOc1cc(CNCc2ccccc2)ccc1OCc1ccc(Cl)cc1,,inactive: 0%
Cn1c(=O)c2c(nc(CN3CCOCC3)n2CCCc2ccccc2)n(C)c1=O,,inactive: -21.5%

# (cont.)

Structure (SMILES),Potency,"activity change, negative = cytotoxicity"
COc1ccccc1CNc1ncc(-c2ccc(F)cc2)n1C,,inactive: -6.84%
CC1CCCC(NC(=O)c2ccc(F)c(S(=O)(=O)N3CCOCC3)c2)C1C (stereo not drawn),"inconclusive: 20.6 µM [cytotoxic, partial curve, poor fit]",
C=CCc1ccccc1OCC(O)CN1CCN(CCN2C(=O)c3cccc4cccc(c34)C2=O)CC1 (stereo not drawn),"inconclusive: 25.9 µM [cytotoxic, single point]",
Cc1cc(-c2ccccc2)nc2c(Br)c(C(=O)O)nn12,"inconclusive: 29.1 µM [rising, single point]",
CCn1nc(C)cc1C(=O)NC1CC(C)(C)Cc2c1cnn2-c1cccc(F)c1 (stereo not drawn),"inconclusive: 4.11 µM [cytotoxic, partial curve, poor fit]",
O=Cc1cn(CCC(=O)O)nc1-c1cccc(Br)c1,,inactive: -35.1%
O=C(COc1ccc(/C=N/NS(=O)(=O)c2ccccc2)cc1)Nc1ccccc1,"inconclusive: 29.1 µM [cytotoxic, single point]",
CCNC(=O)C1(C)CCCN(C(=O)c2ccnc(Cl)c2)C1 (stereo not drawn),"inconclusive: 20.6 µM [rising, single point]",
COc1cccc(NC(=O)/C(C#N)=C\c2cn(Cc3ccc(Cl)cc3)c3ccccc23)c1,"inconclusive: 8.2 µM [cytotoxic, partial curve]",
FC(F)Oc1ccc(-c2csc(Cc3nnc4n3CCCCC4)n2)cc1,,inactive: -27.5%
O=C(Nc1nc(-c2ccccn2)cs1)c1cc(S(=O)(=O)N2CCOCC2)ccc1F,"inconclusive: 0.411 µM [cytotoxic, full curve, poor fit]",
O=C(Nc1ccc(C(=O)O)cc1)/C(=C\c1ccccc1)NC(=O)c1ccc(Br)cc1,,inactive: 2.86%
O=C(NNC(=S)NC(=O)c1sc2ccccc2c1Cl)c1ccc(Cl)cc1,"inconclusive: 18.4 µM [cytotoxic, partial curve]",
Cc1ccccc1N=C1SC(CC(=O)Nc2ccc3ccccc3c2)C(=O)N1Cc1ccccn1 (stereo not drawn),active: 20.6 µM,
O=C(CSc1ccc2ccccc2c1)Nc1ccc(S(=O)(=O)Nc2nccs2)cc1,,inactive: -0.494%
Cc1cc(NC(=O)C2CCCC2)nc2c1c(=O)oc1ccccc12,"inconclusive: 16.4 µM [cytotoxic, single point]",
COC(=O)c1sc(S(=O)(=O)NC(Cc2ccccc2)C(=O)O)c(C(=O)OC)c1C (stereo not drawn),,inactive: -1.68%
COCc1cc(C)nc2oc(C(=O)c3ccccc3)c(N)c12,"inconclusive: 7.31 µM [cytotoxic, partial curve]",
COc1cccc(NC(=S)N(CCN(C)C)Cc2cccs2)c1,"inconclusive: 20.6 µM [cytotoxic, single point]",
CCc1nc(SCC(=O)NCc2ccco2)c2c3c(sc2n1)CCCC3,"inconclusive: 2.31 µM [cytotoxic, full curve]",
Cc1ccc(C(=O)Nc2nc(=O)n(C(=O)C3CC3)s2)cc1,"inconclusive: 29.1 µM [cytotoxic, single point]",
